Assay results published in PMC7819943, “Rice protein-binding microarrays: a tool to detect cis-acting elements near promoter regions in rice”.
The list shows a part of the results.

Amino acid sequences for entries named in this document (tags omitted).
UniProt Q0JBA9, entry or part of it: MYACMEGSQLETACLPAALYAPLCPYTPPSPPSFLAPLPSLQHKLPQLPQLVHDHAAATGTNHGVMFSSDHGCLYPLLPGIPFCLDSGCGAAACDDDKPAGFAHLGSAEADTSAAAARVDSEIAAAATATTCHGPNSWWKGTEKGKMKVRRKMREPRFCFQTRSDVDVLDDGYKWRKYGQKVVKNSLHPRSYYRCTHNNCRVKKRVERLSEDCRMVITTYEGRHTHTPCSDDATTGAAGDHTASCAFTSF

Target: OsWRKY34 (Oryza sativa, UniProt Q0JBA9 1-250)
Test: protein-binding microarray (RPBM); PBS, 2% BSA, 51.3 ng/ul salmon testes DNA, 50 uM zinc acetate, 200 nM TF, 25 C, 1 h; high values mean tight binding
Settings: protein: recombinant; tags: N-terminal polyhistidine and DsRed monomer fusion (pET32a); label: CyDye5-dUTP incorporated in the synthesized complementary strand; 3' TTTTT single-stranded linker to array surface; dsDNA, one strand shown
Method in brief: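 In PBS with 2% BSA, salmon testes DNA and 50 µM zinc acetate, 200 nM protein was incubated on a custom Agilent array at 25 °C for 1 h and then washed off. The array had been made double-stranded by primer extension with Cy5-dUTP and blocked with 2% BSA. The proteins were transcription factors fused N-terminally to polyhistidine and DsRed, expressed in E. coli BL21-CodonPlus and purified on Ni–NTA. The binding signal is per-feature fluorescence intensity (arbitrary units) from an Axon 4000B scanner.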

Sequence | binding signal
GGTCCTTTTAGGATAGGATAACGCATTTCTCGTCTTCACACGGAGTCACCTAGTGCAG | 8390 fluorescence intensity (a.u.)
TCCATTCCATATTATAAGTTGTTTTGGTCTTTCTATCCCTCGGAGTCACCTAGTGCAG | 8760 fluorescence intensity (a.u.)
GCCGCCACCACCGCCTCTTTGCCGGAGGGCTCGAGATCGCCGGAGTCACCTAGTGCAG | 8480 fluorescence intensity (a.u.)
TGGTAGGGTTTGTGCACTGTTGAGATGAAAAGGAAAGCGTCGGAGTCACCTAGTGCAG | 9330 fluorescence intensity (a.u.)
CATCCGCGAGCACTTTGACTAATCAGAATATCAGTTCCCGCGGAGTCACCTAGTGCAG | 8760 fluorescence intensity (a.u.)
CCTTCGTGGTCGTGGCTTACCAGCACCACCCACCTACCGCCGGAGTCACCTAGTGCAG | 8630 fluorescence intensity (a.u.)
CCAACTGCTCTATTCCACTACAATCTCAGGCTACTGCTAACGGAGTCACCTAGTGCAG | 8660 fluorescence intensity (a.u.)
GGGTTATGCGAAGGGTCCTGTCACGGCCTCTATCCGGTATCGGAGTCACCTAGTGCAG | 9600 fluorescence intensity (a.u.)
AATTGCATTCTAAATACTATGGCCCGTTTCGTGTCTTGGACGGAGTCACCTAGTGCAG | 8590 fluorescence intensity (a.u.)
GTTCTAACGATCGCTCACCTCCTCGTTTTATAGCGCCTTCCGGAGTCACCTAGTGCAG | 13200 fluorescence intensity (a.u.)
CTACACACACACACTCTTCTCCAGCTTCTTCCCGCCACGACGGAGTCACCTAGTGCAG | 8160 fluorescence intensity (a.u.)
CAAAATCCCATTGCTCACCCGCGTTATATAACCGCGGCCGCGGAGTCACCTAGTGCAG | 9590 fluorescence intensity (a.u.)
AGTTGTCGTTAATCGGAGTGTGATAATTAATTATTTATATCGGAGTCACCTAGTGCAG | 8240 fluorescence intensity (a.u.)
CATTTTTGCAGGCATATTTTTGGCTTATGCTCCTTGTTCTCGGAGTCACCTAGTGCAG | 8540 fluorescence intensity (a.u.)
GTGTGGATTTTTTTTCCCCGGTGGTTTGTGGGTGTTTGGACGGAGTCACCTAGTGCAG | 12600 fluorescence intensity (a.u.)
ACCTTTTTTGCACTTTTCTTCGGTTGCCATCTTCGTAAATCGGAGTCACCTAGTGCAG | 11100 fluorescence intensity (a.u.)
TTAAGACGGGGAGAGAGAAGGGGAGGGAGGGGCTCGCTGTCGGAGTCACCTAGTGCAG | 13200 fluorescence intensity (a.u.)
TATACATATATCCTCCTTCTGTCCAGCTAACGGTTTATATCGGAGTCACCTAGTGCAG | 9460 fluorescence intensity (a.u.)
GAACCCTGAGTACGTTTTTTTCCTCTTTTTTCTAATTATACGGAGTCACCTAGTGCAG | 8310 fluorescence intensity (a.u.)
AACATTCCGTCCTGAACTTTTTTCATTTGGCCACTGTTACCGGAGTCACCTAGTGCAG | 9020 fluorescence intensity (a.u.)
TTTTTTTCTCGGGATACATGACTCACTTGCGAAAACATCCCGGAGTCACCTAGTGCAG | 9220 fluorescence intensity (a.u.)
CCAGATGTGCACCCCGTATCCCGCGGCGCTACCGCTACCACGGAGTCACCTAGTGCAG | 10100 fluorescence intensity (a.u.)
TGCCCACTCCGCATATTCTGCGCGATATCCTCGTCCCGTACGGAGTCACCTAGTGCAG | 8330 fluorescence intensity (a.u.)
GTTAAAATTATCTTCACTCGTTGCAACACGCATGTATTTTCGGAGTCACCTAGTGCAG | 9710 fluorescence intensity (a.u.)
TTTTCTTTATTCAATCTGTCTTATCCTACTTATATGTATACGGAGTCACCTAGTGCAG | 9920 fluorescence intensity (a.u.)
AAAATTTTCTTGTATGCATGTGGGATTATTAGAGTTTTGCCGGAGTCACCTAGTGCAG | 8360 fluorescence intensity (a.u.)
AAGTATACTACATGGTACCACATACCGACATACGTATACACGGAGTCACCTAGTGCAG | 8050 fluorescence intensity (a.u.)

Sequence | binding signal
AAACGCTGCTTCGTTCCCAACCCTCGCTTCCGATCAGAGCCGGAGTCACCTAGTGCAG | 8420 fluorescence intensity (a.u.)
AAGTTTCACATGTTCAAACACCTCTTTTCTCTCTCTTCTTCGGAGTCACCTAGTGCAG | 10200 fluorescence intensity (a.u.)
ACACTGCGCCTCGGGGAGTGGGTATAAAGCGGGGAGGGATCGGAGTCACCTAGTGCAG | 12800 fluorescence intensity (a.u.)
ACCTGACTAGCACCCTCATTTAGGTTTTGAATAGTTTGTCCGGAGTCACCTAGTGCAG | 10600 fluorescence intensity (a.u.)
TCTTTGGTACATTTTCAGCACTTTCCTATGCTTCATTATACGGAGTCACCTAGTGCAG | 10700 fluorescence intensity (a.u.)
AATAAATGTGCGTTTTATTTTTTTTCTATTGGTGTTAGTACGGAGTCACCTAGTGCAG | 10000 fluorescence intensity (a.u.)
TCCGTGACTATGCTTCTTCTTTTCTTTAATTTTCACCAGACGGAGTCACCTAGTGCAG | 8750 fluorescence intensity (a.u.)
AGAGCCCAACATCTTTTTTTTTGTTTTTTTGAACTTTTTACGGAGTCACCTAGTGCAG | 11900 fluorescence intensity (a.u.)
GTCTCATTCTTCTTATTTCCATTTTTTTTTTCTCTCAAAACGGAGTCACCTAGTGCAG | 11100 fluorescence intensity (a.u.)
TATGCCTGACCCGTAACCCTGACACACATAAGATACATACCGGAGTCACCTAGTGCAG | 9450 fluorescence intensity (a.u.)
TTCGAAAATACCTTCCAACATCCGGTCAAACATCCGACGTCGGAGTCACCTAGTGCAG | 8210 fluorescence intensity (a.u.)
TCCTCCTCGTTTTCCGCGCGCACGCTTTTCAAACTGCTAACGGAGTCACCTAGTGCAG | 8050 fluorescence intensity (a.u.)
TTGACTATAACTTGTAGTGTACGCGCCGGCTCATGCATCTCGGAGTCACCTAGTGCAG | 10000 fluorescence intensity (a.u.)
TATGTTTATTTAATTGTTCCATAGAGTTGACTGAAATTGCCGGAGTCACCTAGTGCAG | 9680 fluorescence intensity (a.u.)
GAGGAGGCGGTGGGAGGGATCGATGGCGTCGCGCGTGCTCCGGAGTCACCTAGTGCAG | 9630 fluorescence intensity (a.u.)
GAGTTGGTTATAAGGTGAGTATCTCGCTAAGTCAGTTGTTCGGAGTCACCTAGTGCAG | 9210 fluorescence intensity (a.u.)
TGCCTCGTTTTTCTCTATAGACTATCTCCTGGTTAGTAGACGGAGTCACCTAGTGCAG | 8150 fluorescence intensity (a.u.)
TATTTTAATGTATGACGCCGTTGACTTTTTAATCAATGTTCGGAGTCACCTAGTGCAG | 29100 fluorescence intensity (a.u.)
CTTGCCATGGTGTTGATTTGGGGCGGGAAGAAGCATCGGGCGGAGTCACCTAGTGCAG | 16800 fluorescence intensity (a.u.)
GAACAACAATACAATACATACACGCATACATAGGTAGATCCGGAGTCACCTAGTGCAG | 8280 fluorescence intensity (a.u.)
ACACATACACACACATATCTCATCTTGTTGTTTCTGAGCTCGGAGTCACCTAGTGCAG | 10600 fluorescence intensity (a.u.)
CTTCGTTGTTAACTTTCTCAATATTCGTGCCGTGTATTATCGGAGTCACCTAGTGCAG | 8120 fluorescence intensity (a.u.)
ACCCTCTTGTGCCTCTCATTGTTTGGTCATTGACTTCAGCCGGAGTCACCTAGTGCAG | 11200 fluorescence intensity (a.u.)
AAAGAACTTACTTCTATTCTATTTGCTAAGTTTATTTTTCCGGAGTCACCTAGTGCAG | 8090 fluorescence intensity (a.u.)
ACGGAGCCACCTATCCGCGCCGTCAGATCTCTCCATTTCTCGGAGTCACCTAGTGCAG | 11200 fluorescence intensity (a.u.)
GGCCACGCTCCGCCTCGCGGTCCTACTGCGCCTTCGCCTCCGGAGTCACCTAGTGCAG | 10500 fluorescence intensity (a.u.)
AGAATCTGGTACCACCCTCATGTTTGATAATTGACTTTTCCGGAGTCACCTAGTGCAG | 8250 fluorescence intensity (a.u.)

Single values from above.
For binding signal, AATAAATGTGCGTTTTATTTTTTTTCTATTGGTGTTAGTACGGAGTCACCTAGTGCAG is entered as 10000 fluorescence intensity (a.u.)
For binding signal, GAACAACAATACAATACATACACGCATACATAGGTAGATCCGGAGTCACCTAGTGCAG is entered as 8280 fluorescence intensity (a.u.)
For binding signal, AGAATCTGGTACCACCCTCATGTTTGATAATTGACTTTTCCGGAGTCACCTAGTGCAG is entered as 8250 fluorescence intensity (a.u.)
For binding signal, ACACTGCGCCTCGGGGAGTGGGTATAAAGCGGGGAGGGATCGGAGTCACCTAGTGCAG is entered as 12800 fluorescence intensity (a.u.)
